From EP4778539A1
Results are given in words; binding and its absence hold for the method and conditions named. Some entries that bind do so weakly or less than the wild type.

T1: mouse CAPRIN-1 on the cell membrane surface of mouse cancer cells (mouse) (UniProt Q60865)
T1 sequence (looked up): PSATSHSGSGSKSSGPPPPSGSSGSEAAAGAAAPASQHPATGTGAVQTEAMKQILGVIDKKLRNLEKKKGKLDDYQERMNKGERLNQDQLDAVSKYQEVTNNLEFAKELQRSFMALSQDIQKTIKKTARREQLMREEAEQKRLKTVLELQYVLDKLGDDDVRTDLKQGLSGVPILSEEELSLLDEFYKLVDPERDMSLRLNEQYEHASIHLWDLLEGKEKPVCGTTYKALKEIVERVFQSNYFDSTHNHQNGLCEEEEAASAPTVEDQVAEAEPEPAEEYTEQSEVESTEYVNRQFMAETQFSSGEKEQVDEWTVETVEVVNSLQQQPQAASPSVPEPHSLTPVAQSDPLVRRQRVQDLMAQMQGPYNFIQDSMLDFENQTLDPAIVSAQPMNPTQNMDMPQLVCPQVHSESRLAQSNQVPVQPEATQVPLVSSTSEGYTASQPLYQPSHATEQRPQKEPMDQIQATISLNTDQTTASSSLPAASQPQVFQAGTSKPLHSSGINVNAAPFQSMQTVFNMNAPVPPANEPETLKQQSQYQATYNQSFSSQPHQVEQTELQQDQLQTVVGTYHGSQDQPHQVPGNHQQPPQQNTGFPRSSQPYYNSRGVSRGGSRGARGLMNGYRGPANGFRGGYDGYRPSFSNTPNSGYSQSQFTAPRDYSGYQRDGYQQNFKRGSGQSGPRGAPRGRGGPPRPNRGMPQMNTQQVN

T2: human CAPRIN-1 on the cell membrane surface of human cancer cells (human) (UniProt Q14444)
T2 sequence (looked up): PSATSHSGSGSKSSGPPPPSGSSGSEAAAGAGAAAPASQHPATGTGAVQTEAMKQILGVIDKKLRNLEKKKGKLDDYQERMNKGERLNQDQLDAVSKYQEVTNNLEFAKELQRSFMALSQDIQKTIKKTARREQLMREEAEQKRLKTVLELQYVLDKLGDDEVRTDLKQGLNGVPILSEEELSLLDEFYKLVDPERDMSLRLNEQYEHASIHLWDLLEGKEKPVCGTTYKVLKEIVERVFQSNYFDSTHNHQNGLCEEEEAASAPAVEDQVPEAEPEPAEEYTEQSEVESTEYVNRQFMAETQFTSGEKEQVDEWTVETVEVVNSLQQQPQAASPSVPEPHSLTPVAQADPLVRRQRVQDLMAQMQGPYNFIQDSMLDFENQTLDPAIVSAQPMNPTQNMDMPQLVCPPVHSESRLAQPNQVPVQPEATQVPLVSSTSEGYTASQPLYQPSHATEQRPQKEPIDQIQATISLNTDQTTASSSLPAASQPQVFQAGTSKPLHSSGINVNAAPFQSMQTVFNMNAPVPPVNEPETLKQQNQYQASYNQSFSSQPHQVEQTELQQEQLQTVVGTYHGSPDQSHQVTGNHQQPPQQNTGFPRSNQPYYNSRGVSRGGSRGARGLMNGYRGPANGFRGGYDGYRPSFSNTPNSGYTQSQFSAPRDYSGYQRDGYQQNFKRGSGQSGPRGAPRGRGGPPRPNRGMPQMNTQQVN


Columns and labels:
[1] = molecular target: T1, mouse CAPRIN-1 on the cell membrane surface of mouse cancer cells (mouse); assay: flow cytometry, mouse cancer cells
[2] = molecular target: T2, human CAPRIN-1 on the cell membrane surface of human cancer cells (human); assay: flow cytometry, HT29
[3] = molecular target: T2, human CAPRIN-1 on the cell membrane surface of human cancer cells (human); assay: flow cytometry, human cancer cells
[4] = molecular target: T1, mouse CAPRIN-1 on the cell membrane surface of mouse cancer cells (mouse); assay: flow cytometry, 4T1

binding [1] | binding [2] | binding [3] | binding [4] | Binder
binds | binds | binds | binds | F(ab')2 complex #46 (protein) VH: GAELVRSGASVKMSCKASGYSFTDYNMYWVKQTPGQGLEWIGYIYPGNGGTNYNQKFKGKATLTADTSSSTAYMQISSLTSEDSAVYFCARDYDDGGYAMDYWGQGTTVTVSS VL: DIQMTQSPASLSASVGETVTITCRASGNIHNYLTWYQQKQGKSPQLLVYNAKTLADGVPSRFSGSGSGTQYSLKINRLQPEDFGSYYCQHFWNIPWTFGGGTKLNSR
binds | binds | binds | binds | F(ab')2 complex #9 (protein) VH: AVTLDESGGGLQTPGGALSLVCKASGFTFSGYDMLWVRQAPGKGLEWVAGIGSTGGGTDYGAAVKGRATISRDNGQSTVRLQLNNLRAEDTATYYCAKVAGGCNSGYCRDSPGSIDAWGHGTEVIVS VL: AVTQQPASVSANPGETVKITCSGGGSRNYYGWYQQKSPGSVPVTVIYYDDQRPSNIPSRFSGALSGSTSTLTITGVQADDEAVYFCGSADSNTYEGSFGAGTTLTVL
binds | binds | binds | binds | F(ab')2 complex #36 (protein) VH: EVQLVESGGGLVQPGGSLRLSCAASGFSLSSHSLGWVRQAPGKGLEWIGDIRSGGSAYYANWAKGRFTISRDNSKNTLYLQMNSLRAEDTAVYYCTRTNGPSDLTNRLDLWGQGTLVTVSS VL: QVLTQSPSSLSASVGDRVTINCQASQSLYNNENLAWFQQKPGKVPKRLIYGASTLASGVSSRFSGSGSGTEFTLTISSLQCEDFAIYYCLGEFSCGSADCFAFGGGTKVEIK
binds | binds | binds | binds | F(ab')2 complex #70 (protein) VH: EVQLVESGGGLVQPGGSLRLSCAASGFSLSSHSLGWVRQAPGKGLEWIGDIRSGGSAYYANWAKGRFTISRDNSKNTLYLQMNSLRAEDTAVYFCTRTNGPSDLTNRLDLWGQGTLVTVSS VL: QVLTQSPSSLSASVGDRVTINCQASQSLYNNENLAWFQQKPGKVPKRLIYGASTLASGVSSRFSGSGSGTEFTLTISSLQCEDFAIYYCLGEFSCGSADCFAFGGGTKVEIK
binds | binds | binds | binds | F(ab')2 complex #40 (protein) VH: EVQLVESGGGLVQPGGSLRLSCAASGFSLSSHSLGWVRQAPGKGLEWIGDIRSGGSAYYANWAKGRFTISRDNSKNTLYLQMNSLRAEDTAVYYCTRTNGPSDLTNRLDLWGQGTLVTVSS VL: EIVLTQSPSSLSASVGDRVTINCQASQSLYNNENLAWFQQKPGKVPKRLIYGASTLASGVSSRFSGSGSGTEFTLTISNLQPEDFATYYCLGEFSCGSADCFAFGGGTKVEIK

Further lines, the binder ahead of its results:

Binder | binding [1] | binding [2] | binding [3] | binding [4]
F(ab')2 complex #13 (protein) VH: GAELVRSGASVKMSCKASGYSFTDYNMYWVKQTPGQGLEWIGYIYPGNGGTNYNQKFKGKATLTADTSSSTAYMQISSLTSEDSAVYFCARDYDDGGYAMDYWGQGTTVTVSS VL: DIQMTQSPASLSASVGETVTITCRASGNIHNYLTWYQQKQGKSPQLLVYNAKTLADGVPSRFSGSGSGTQYSLKINRLQPEDFGSYYCQHFWNIPWTFGGGTKLNSR | binds | binds | binds | binds
humanized antibody complex #9 (antibody, human IgG1, V domains shown) VH: AVTLDESGGGLQTPGGALSLVCKASGFTFSGYDMLWVRQAPGKGLEWVAGIGSTGGGTDYGAAVKGRATISRDNGQSTVRLQLNNLRAEDTATYYCAKVAGGCNSGYCRDSPGSIDAWGHGTEVIVS VL: AVTQQPASVSANPGETVKITCSGGGSRNYYGWYQQKSPGSVPVTVIYYDDQRPSNIPSRFSGALSGSTSTLTITGVQADDEAVYFCGSADSNTYEGSFGAGTTLTVL | binds | binds | binds | binds
F(ab')2 complex #42 (protein) VH: AVTLDESGGGLQTPGGALSLVCKASGFTFSGYDMLWVRQAPGKGLEWVAGIGSTGGGTDYGAAVKGRATISRDNGQSTVRLQLNNLRAEDTATYYCAKVAGGCNSGYCRDSPGSIDAWGHGTEVIVS VL: AVTQQPASVSANPGETVKITCSGGGSRNYYGWYQQKSPGSVPVTVIYYDDQRPSNIPSRFSGALSGSTSTLTITGVQADDEAVYFCGSADSNTYEGSFGAGTTLTVL | binds | binds | binds | binds
F(ab')2 complex #39 (protein) VH: EVQLVESGGGLVQPGGSLRLSCAASGFSLSSHSLGWVRQAPGKGLEWIGDIRSGGSAYYANWAKGRFTISRDNSKNTLYLQMNSLRAEDTAVYFCTRTNGPSDLTNRLDLWGQGTLVTVSS VL: EIVLTQSPSSLSASVGDRVTINCQASQSLYNNENLAWFQQKPGKVPKRLIYGASTLASGVSSRFSGSGSGTEFTLTISNLQPEDFATYYCLGEFSCGSADCFAFGGGTKVEIK | binds | binds | binds | binds
F(ab')2 complex #71 (protein) VH: EVQLVESGGGLVQPGGSLRLSCAASGFSLSSHSLGWVRQAPGKGLEWIGDIRSGGSAYYANWAKGRFTISRDNSKNTLYLQMNSLRAEDTAVYYCTRTNGPSDLTNRLDLWGQGTLVTVSS VL: EQVLTQSPSSLSASVGDRVTINCQASQSLYNNENLAWFQQKPGKVPKRLIYGASTLASGVSSRFSGSGSGTEFTLTISNLQPEDFAIYYCLGEFSCGSADCFAFGGGTKVEIK | binds | binds | binds | binds
F(ab')2 complex #41 (protein) VH: EVQLVESGGGLVQPGGSLRLSCAASGFSLSSHSLGWVRQAPGKGLEWIGDIRSGGSAYYANWAKGRFTISRDNSKNTLYLQMNSLRAEDTAVYFCTRTNGPSDLTNRLDLWGQGTLVTVSS VL: EQVLTQSPSSLSASVGDRVTINCQASQSLYNNENLAWFQQKPGKVPKRLIYGASTLASGVSSRFSGSGSGTEFTLTISNLQPEDFAIYYCLGEFSCGSADCFAFGGGTKVEIK | binds | binds | binds | binds
F(ab')2 complex #69 (protein) VH: EVQLVESGGGLVQPGGSLRLSCAASGFSLSSHSLGWVRQAPGKGLEWIGDIRSGGSAYYANWAKGRFTISRDNSKNTLYLQMNSLRAEDTAVYYCTRTNGPSDLTNRLDLWGQGTLVTVSS VL: QVLTQSPSSLSASVGDRVTINCQASQSLYNNENLAWFQQKPGKVPKRLIYGASTLASGVSSRFSGSGSGTEFTLTISSLQCEDFAIYYCLGEFSCGSADCFAFGGGTKVEIK | binds | binds | binds | binds
F(ab')2 complex #38 (protein) VH: EVQLVESGGGLVQPGGSLRLSCAASGFSLSSHSLGWVRQAPGKGLEWIGDIRSGGSAYYANWAKGRFTISRDNSKNTLYLQMNSLRAEDTAVYYCTRTNGPSDLTNRLDLWGQGTLVTVSS VL: EQVLTQSPSSLSASVGDRVTINCQASQSLYNNENLAWFQQKPGKVPKRLIYGASTLASGVSSRFSGSGSGTEFTLTISNLQPEDFAIYYCLGEFSCGSADCFAFGGGTKVEIK | binds | binds | binds | binds
F(ab')2 complex #37 (protein) VH: EVQLVESGGGLVQPGGSLRLSCAASGFSLSSHSLGWVRQAPGKGLEWIGDIRSGGSAYYANWAKGRFTISRDNSKNTLYLQMNSLRAEDTAVYFCTRTNGPSDLTNRLDLWGQGTLVTVSS VL: QVLTQSPSSLSASVGDRVTINCQASQSLYNNENLAWFQQKPGKVPKRLIYGASTLASGVSSRFSGSGSGTEFTLTISSLQCEDFAIYYCLGEFSCGSADCFAFGGGTKVEIK | binds | binds | binds | binds
